{
  "source": "PubChem BioAssay AID1347426",
  "about": "(Functional Genomics Laboratory (NCATS/FGL), 2020)",
  "note": "The campaign covered roughly 31,000 sequences. About 1,400 (4.5%) were called active.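 How the source made its calls: active means median seed-adjusted z-score above 1 or below -1; inactive means the rest.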 This is one part of the list.",
  "data": [
    {"experiment": "Novel Modifiers of Survival Motor Neuron (SMN) Protein: Gene Identification via Genome-wide siRNA Screen;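 further: luminescence tracks full-length SMN protein made from the SMN2 reporter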", "conditions": "HEK293T SMN2-luciferase reporter, siRNA knockdown, 72 h; actives lie on both sides", "outline": "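HEK293T cells stably carrying an SMN2 promoter/splicing cassette–luciferase reporter were reverse-transfected with 1 pmol siRNA per well (druggable-genome library, 3 siRNAs per gene) and grown 72 h at 37 °C. Luminescence, normalized to negative-control siRNA and log10-transformed, was scored as MAD.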", "values": [
      {"sequence": "GAAGGAUAGAAGAACUCAATT against MTA3", "median seed-adjusted z-score": "inactive: 0.342"},
      {"sequence": "GCGACAAAGGAAAACCUAATT against ZNF264", "median seed-adjusted z-score": "inactive: 0.617"},
      {"sequence": "CGUGUUUUCUUGCCGAACATT against RAF1", "median seed-adjusted z-score": "inactive: 0"},
      {"sequence": "CCUACGAACAUGACCCUAUTT against STAT1", "median seed-adjusted z-score": "inactive: -0.0526"},
      {"sequence": "GAUCCUGAAUGUGAACGGATT against SLC6A16", "median seed-adjusted z-score": "inactive: -0.461"},
      {"sequence": "GUGAUACUGUCAAAGGUCATT against ATF2", "median seed-adjusted z-score": "inactive: 0.424"},
      {"sequence": "GAUGCCUCUGGAUAUUUUATT against RAB12", "median seed-adjusted z-score": "inactive: -0.185"},
      {"sequence": "GCAUAUGGAGAUACCAUUATT against ALCAM", "median seed-adjusted z-score": "inactive: -0.743"},
      {"sequence": "CGGCCAAACUGCGUCUCAATT against RRAS", "median seed-adjusted z-score": "inactive: -0.102"},
      {"sequence": "GGGUCUUCAUGAUUGGUGUTT against SLC44A5", "median seed-adjusted z-score": "inactive: 0.179"},
      {"sequence": "AGAUCUACAGCUUCAUGAATT against FOXN4", "median seed-adjusted z-score": "inactive: 0.15"},
      {"sequence": "ACAAUUUCGAGAUCCAGAATT against OAS2", "median seed-adjusted z-score": "inactive: 0.0758"},
      {"sequence": "GCCCAACACCUUCUAUGUATT against CD81", "median seed-adjusted z-score": "inactive: 0"},
      {"sequence": "GCUUUCAAAUCGUCCGCGATT against TPSD1", "median seed-adjusted z-score": "inactive: 0.0848"},
      {"sequence": "GUACGGAUACCUCAAUGAATT against MMP28", "median seed-adjusted z-score": "inactive: 0.862"},
      {"sequence": "GGUCCUACGUUCACCAACATT against HNF1A", "median seed-adjusted z-score": "inactive: -0.436"},
      {"sequence": "GGAUGAACCCAAUCCCAAUTT against UBE2A", "median seed-adjusted z-score": "inactive: 0.306"},
      {"sequence": "CAGCCGCUGAAAUCCUUAATT against GRIK1", "median seed-adjusted z-score": "inactive: -0.31"},
      {"sequence": "CUACUGGAUUUGCUACAUUTT against SLCO4C1", "median seed-adjusted z-score": "inactive: -0.116"},
      {"sequence": "GGACAUCGCGUAUCCCAAATT against SLC5A11", "median seed-adjusted z-score": "inactive: -0.219"},
      {"sequence": "GGCUUACCAUACUAUGAAATT against RHOBTB1", "median seed-adjusted z-score": "inactive: -0.605"},
      {"sequence": "CUCUCAAACAGAUGUUGUATT against CTGLF1", "median seed-adjusted z-score": "inactive: 0.0231"},
      {"sequence": "GGAAAAUCUUAUACAAUGATT against KIF1B", "median seed-adjusted z-score": "inactive: 0.376"},
      {"sequence": "GGAUGAAACCAGUGCUGAATT against CLIC1", "median seed-adjusted z-score": "inactive: 0.288"},
      {"sequence": "CAUUUGCAAUGUAAAGAAUTT against ZNF208", "median seed-adjusted z-score": "inactive: 0.265"},
      {"sequence": "ACAUCACCCGCACCAUUUATT against P2RY4", "median seed-adjusted z-score": "inactive: -0.389"},
      {"sequence": "AAUCAUUUGUCACAAGAGATT against ZFAND6", "median seed-adjusted z-score": "inactive: -0.181"},
      {"sequence": "GCCUGUAACUCAUCGGUGATT against KCTD16", "median seed-adjusted z-score": "inactive: 0.00219"},
      {"sequence": "CAGCCUCAGUGGGAAUACATT against SCN5A", "median seed-adjusted z-score": "inactive: -0.167"},
      {"sequence": "UGGGUGAGAUUGUCCGUAATT against HK2", "median seed-adjusted z-score": "inactive: -0.0135"},
      {"sequence": "AGACUUAUGUGGAACUGUATT against HOXA4", "median seed-adjusted z-score": "inactive: 0.194"},
      {"sequence": "ACUUAUGAAGUUGACCUUATT against SDHB", "median seed-adjusted z-score": "inactive: 0.0872"},
      {"sequence": "ACUUUGUAAUGUAAAAGGATT against IMP3", "median seed-adjusted z-score": "inactive: 0.0239"},
      {"sequence": "CAGACUUAUUACUAGAUGATT against PRDX5", "median seed-adjusted z-score": "inactive: -0.0386"},
      {"sequence": "GAAUCGCGAGCUGAAGGAATT against ATF5", "median seed-adjusted z-score": "inactive: 0.233"},
      {"sequence": "CAACGACUGAUGCUCCGAATT against TLR3", "median seed-adjusted z-score": "inactive: 0.0615"},
      {"sequence": "GGAACGAAGGUGUUGCACATT against MECR", "median seed-adjusted z-score": "inactive: 0.0339"},
      {"sequence": "GGAAUUUACCGAAACCCGUTT against AMZ2", "median seed-adjusted z-score": "inactive: 0.26"},
      {"sequence": "GUACUCCCAGGAUUCCAUATT against CNOT8", "median seed-adjusted z-score": "inactive: 0.375"},
      {"sequence": "GUGCUCAAAUCUAAUCCAATT against DNAJC3", "median seed-adjusted z-score": "inactive: 0.502"},
      {"sequence": "GUAGCACAGAGGAUUAAAATT against TTC33", "median seed-adjusted z-score": "inactive: 0.104"},
      {"sequence": "GGAUAUGGAGUGAUUCCUATT against PAQR3", "median seed-adjusted z-score": "inactive: -0.0384"},
      {"sequence": "GCUUUCAAAUUCUAUCGAATT against SFRS14", "median seed-adjusted z-score": "inactive: -0.312"},
      {"sequence": "CUUUAAGAGUUGUUACUAATT against YEATS4", "median seed-adjusted z-score": "inactive: 0.905"},
      {"sequence": "AAAUGAUCAUGCCGAAAAATT against RANBP1", "median seed-adjusted z-score": "inactive: 0.545"},
      {"sequence": "GUAUAUUCACUGACCGUUUTT against SLC16A2", "median seed-adjusted z-score": "inactive: -0.302"},
      {"sequence": "GCUGGAAUCCUAGCUCGUATT against ATIC", "median seed-adjusted z-score": "inactive: -0.0267"},
      {"sequence": "GGUUGGUGUUCGAUGAGUATT against ANXA6", "median seed-adjusted z-score": "active: -1.01"},
      {"sequence": "GGAGAUUAGCAAGACCAUUTT against HOXC10", "median seed-adjusted z-score": "inactive: 0.000966"},
      {"sequence": "CCUACAACGAGAUGCCUUATT against SCPEP1", "median seed-adjusted z-score": "inactive: -0.99"},
      {"sequence": "GAACCUAACCAACUAUAAATT against EPB42", "median seed-adjusted z-score": "inactive: -0.294"},
      {"sequence": "GCCUAAUGGUUCAUUGCUATT against IRAK4", "median seed-adjusted z-score": "inactive: -0.288"},
      {"sequence": "GGAGAAUGGUUCGACUGUUTT against CKAP5", "median seed-adjusted z-score": "active: -1.87"},
      {"sequence": "AGUUUGUCGUUCUAAAGAATT against KRT85", "median seed-adjusted z-score": "inactive: -0.126"},
      {"sequence": "GGAAAACGGAAGAGGAAUATT against MAGI2", "median seed-adjusted z-score": "inactive: -0.23"},
      {"sequence": "CGAGAAGUGAUCUCCAAAATT against RAPGEFL1", "median seed-adjusted z-score": "inactive: 0.21"},
      {"sequence": "CGCAAUCACUCACAUCUCATT against ZNF502", "median seed-adjusted z-score": "inactive: 0.348"},
      {"sequence": "CAGAUGGAUUAUUAGCUGATT against OAZ2", "median seed-adjusted z-score": "inactive: 0.66"},
      {"sequence": "CAACCUUGCUAACCUUAUATT against SPAST", "median seed-adjusted z-score": "inactive: 0.0703"},
      {"sequence": "CCAUGUAGAGGACCUAGAATT against MCL1", "median seed-adjusted z-score": "inactive: 0.225"},
      {"sequence": "UGUGCUUCGUGAUACCGAUTT against MSL3", "median seed-adjusted z-score": "inactive: 0.423"},
      {"sequence": "GGUCCAUCCAAAUUGUGGATT against CYP21A2", "median seed-adjusted z-score": "inactive: -0.26"},
      {"sequence": "GAAGCUUCGCUAUUAUGAATT against MPP3", "median seed-adjusted z-score": "inactive: 0"},
      {"sequence": "CGAUGGACAGAAUAACUGUTT against LDLRAD3", "median seed-adjusted z-score": "inactive: -0.133"},
      {"sequence": "GGCGCAAGGAUGAAACCUATT against GALNT6", "median seed-adjusted z-score": "inactive: -0.287"},
      {"sequence": "UCAUCAUUGUGAUAAACCATT against TMEM86B", "median seed-adjusted z-score": "inactive: -0.465"},
      {"sequence": "CAAGUGGAGCGGACACGAATT against ACOT8", "median seed-adjusted z-score": "inactive: 0.0643"},
      {"sequence": "AGAUGAGGGUCUACAACAATT against GALNT9", "median seed-adjusted z-score": "inactive: 0.787"}
    ]}
  ]
}
